Laboratory results as given in patent US20250288573A1 (H. LEE MOFFITT CANCER CENTER AND RESEARCH INSTITUTE, INC., priority 2018, published 2025).
Where “and” joins values, the source holds several entries; their conditions need not be identical. Equal values may be shown once. At least one read-out could not be matched to a standard name with certainty.

Chains of the proteins cited; added tags and fusions are not shown. Lines headed by an entry give the natural chain unless they say otherwise; changes in a name come on top.
UniProt Q96SW2: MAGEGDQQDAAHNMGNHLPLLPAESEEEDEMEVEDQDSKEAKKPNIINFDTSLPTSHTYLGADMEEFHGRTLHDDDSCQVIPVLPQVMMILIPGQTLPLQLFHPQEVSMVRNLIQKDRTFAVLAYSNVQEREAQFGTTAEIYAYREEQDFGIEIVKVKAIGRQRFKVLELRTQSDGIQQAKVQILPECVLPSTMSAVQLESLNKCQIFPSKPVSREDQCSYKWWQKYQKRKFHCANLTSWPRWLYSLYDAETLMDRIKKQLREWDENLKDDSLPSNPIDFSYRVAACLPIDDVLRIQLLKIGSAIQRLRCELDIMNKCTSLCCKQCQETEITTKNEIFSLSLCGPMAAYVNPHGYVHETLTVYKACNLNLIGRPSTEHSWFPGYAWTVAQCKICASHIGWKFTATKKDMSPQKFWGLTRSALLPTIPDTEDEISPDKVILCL

Target: T1, CRBN (Homo sapiens, UniProt Q96SW2)
T1 construct: endogenous in cells; host or cells: primary human T cells / CD8+ T cells from peripheral blood
Experiment: Western blot for expression of CRBN relative to vinculin in human T cells (CRBN degradation)
Format: cell-based
Settings: 10nM, 24 hours
Description: Bortez=bortezomib; MG132=proteasome inhibitor; MLN4924=NEDD8 inhibitor.
This assay is a standard Western blot assay for expression of CRBN relative to vinculin.
[…] 0.1 percent DMSO was used as a vehicle control.

O=C1C[C@H](NC(=O)c2cccc(NC(=O)CCCCCCC(=O)Nc3cccc(C(=O)N[C@H]4CC(=O)NC4=O)c3)c2)C(=O)N1 [XS01-066, N^1,N^8-Bis(3-(((S)-2,5-dioxopyrrolidin-3-yl)carbamoyl)phenyl)octanediamide]
Relative Density of CRBN (% of DMSO): 121.78% and 71.94%

O=C1C[C@H](NC(=O)CCCCCCCCC(=O)N[C@H]2CC(=O)NC2=O)C(=O)N1 [XS01-081, N^1,N^10-Bis((S)-2,5-dioxopyrrolidin-3-yl)decanediamide]
Relative Density of CRBN (% of DMSO): 138.50% and 215.56%
